Measurements published in the supplement of paper PMC10849652.
Some of the results follow.

Amino acid sequences for entries named in this document (tags omitted). A change or cut given only in a name is not applied to a line headed by its entry.
UniProt P07311: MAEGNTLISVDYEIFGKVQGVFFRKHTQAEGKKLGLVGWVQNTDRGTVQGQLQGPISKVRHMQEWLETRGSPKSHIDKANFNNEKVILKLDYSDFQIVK
UniProt Q86V24: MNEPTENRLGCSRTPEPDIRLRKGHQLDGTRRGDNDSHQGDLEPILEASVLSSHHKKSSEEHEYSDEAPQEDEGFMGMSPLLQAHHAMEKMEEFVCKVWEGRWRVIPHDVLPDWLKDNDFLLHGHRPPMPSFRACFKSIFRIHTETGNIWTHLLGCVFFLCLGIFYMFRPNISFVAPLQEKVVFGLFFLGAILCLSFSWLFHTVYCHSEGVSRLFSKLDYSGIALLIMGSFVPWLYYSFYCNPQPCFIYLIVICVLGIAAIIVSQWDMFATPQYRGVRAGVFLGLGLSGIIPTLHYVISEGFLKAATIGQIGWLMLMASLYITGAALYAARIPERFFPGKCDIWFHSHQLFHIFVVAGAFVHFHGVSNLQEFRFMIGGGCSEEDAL
UniProt P33121: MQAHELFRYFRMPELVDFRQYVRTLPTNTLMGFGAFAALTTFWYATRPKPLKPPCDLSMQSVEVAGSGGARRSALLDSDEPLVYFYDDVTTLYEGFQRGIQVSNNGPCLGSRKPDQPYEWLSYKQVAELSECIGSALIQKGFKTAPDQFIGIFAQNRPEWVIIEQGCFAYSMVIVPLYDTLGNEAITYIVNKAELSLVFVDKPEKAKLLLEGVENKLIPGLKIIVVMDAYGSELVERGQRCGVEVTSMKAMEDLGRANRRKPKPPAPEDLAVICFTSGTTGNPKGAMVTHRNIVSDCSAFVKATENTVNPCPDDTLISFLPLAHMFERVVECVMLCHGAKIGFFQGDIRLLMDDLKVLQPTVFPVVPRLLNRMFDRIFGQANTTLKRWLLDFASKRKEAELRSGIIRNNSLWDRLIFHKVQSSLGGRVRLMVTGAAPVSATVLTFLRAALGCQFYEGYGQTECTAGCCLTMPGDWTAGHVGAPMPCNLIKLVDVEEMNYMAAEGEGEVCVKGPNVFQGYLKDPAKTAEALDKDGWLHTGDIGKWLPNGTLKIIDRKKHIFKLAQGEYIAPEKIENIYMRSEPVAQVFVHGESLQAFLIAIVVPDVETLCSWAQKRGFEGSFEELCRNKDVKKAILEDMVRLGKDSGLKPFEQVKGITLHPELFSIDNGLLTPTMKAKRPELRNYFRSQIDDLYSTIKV
UniProt Q9Y305: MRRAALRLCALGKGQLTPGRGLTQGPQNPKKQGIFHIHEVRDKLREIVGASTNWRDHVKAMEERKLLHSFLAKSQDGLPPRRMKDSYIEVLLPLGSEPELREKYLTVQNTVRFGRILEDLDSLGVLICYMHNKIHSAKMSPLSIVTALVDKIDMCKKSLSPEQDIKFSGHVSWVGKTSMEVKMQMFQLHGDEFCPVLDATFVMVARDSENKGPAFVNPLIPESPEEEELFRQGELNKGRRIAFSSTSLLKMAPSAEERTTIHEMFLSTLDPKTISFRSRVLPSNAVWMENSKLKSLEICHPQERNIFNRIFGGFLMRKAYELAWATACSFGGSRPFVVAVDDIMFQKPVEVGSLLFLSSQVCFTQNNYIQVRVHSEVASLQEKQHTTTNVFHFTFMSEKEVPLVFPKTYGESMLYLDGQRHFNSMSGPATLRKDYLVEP
UniProt P52594: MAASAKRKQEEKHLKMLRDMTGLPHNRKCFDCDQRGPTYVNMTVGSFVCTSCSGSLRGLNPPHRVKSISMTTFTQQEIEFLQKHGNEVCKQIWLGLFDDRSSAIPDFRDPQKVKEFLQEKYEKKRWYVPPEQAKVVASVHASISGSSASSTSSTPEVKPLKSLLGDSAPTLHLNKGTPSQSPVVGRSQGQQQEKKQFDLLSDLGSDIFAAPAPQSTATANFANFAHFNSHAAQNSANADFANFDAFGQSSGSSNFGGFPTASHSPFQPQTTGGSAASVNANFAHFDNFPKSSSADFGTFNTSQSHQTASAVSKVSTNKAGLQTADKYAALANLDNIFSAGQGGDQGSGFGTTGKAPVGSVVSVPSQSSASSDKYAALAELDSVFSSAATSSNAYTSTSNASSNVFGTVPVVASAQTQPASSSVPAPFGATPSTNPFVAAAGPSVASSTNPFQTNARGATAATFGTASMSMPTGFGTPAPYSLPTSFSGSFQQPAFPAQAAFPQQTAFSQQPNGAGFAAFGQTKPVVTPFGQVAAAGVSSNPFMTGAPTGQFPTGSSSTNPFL
UniProt P00813: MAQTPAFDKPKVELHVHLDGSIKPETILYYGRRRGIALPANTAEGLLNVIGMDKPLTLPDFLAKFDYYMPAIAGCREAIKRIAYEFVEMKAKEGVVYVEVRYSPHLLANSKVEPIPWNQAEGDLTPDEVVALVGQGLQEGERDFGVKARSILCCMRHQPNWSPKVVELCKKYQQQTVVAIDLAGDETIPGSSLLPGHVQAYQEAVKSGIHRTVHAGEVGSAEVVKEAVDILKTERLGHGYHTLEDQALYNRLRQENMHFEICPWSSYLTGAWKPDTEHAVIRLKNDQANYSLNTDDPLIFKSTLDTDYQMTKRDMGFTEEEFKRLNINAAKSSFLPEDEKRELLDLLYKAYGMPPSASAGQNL
UniProt O14672: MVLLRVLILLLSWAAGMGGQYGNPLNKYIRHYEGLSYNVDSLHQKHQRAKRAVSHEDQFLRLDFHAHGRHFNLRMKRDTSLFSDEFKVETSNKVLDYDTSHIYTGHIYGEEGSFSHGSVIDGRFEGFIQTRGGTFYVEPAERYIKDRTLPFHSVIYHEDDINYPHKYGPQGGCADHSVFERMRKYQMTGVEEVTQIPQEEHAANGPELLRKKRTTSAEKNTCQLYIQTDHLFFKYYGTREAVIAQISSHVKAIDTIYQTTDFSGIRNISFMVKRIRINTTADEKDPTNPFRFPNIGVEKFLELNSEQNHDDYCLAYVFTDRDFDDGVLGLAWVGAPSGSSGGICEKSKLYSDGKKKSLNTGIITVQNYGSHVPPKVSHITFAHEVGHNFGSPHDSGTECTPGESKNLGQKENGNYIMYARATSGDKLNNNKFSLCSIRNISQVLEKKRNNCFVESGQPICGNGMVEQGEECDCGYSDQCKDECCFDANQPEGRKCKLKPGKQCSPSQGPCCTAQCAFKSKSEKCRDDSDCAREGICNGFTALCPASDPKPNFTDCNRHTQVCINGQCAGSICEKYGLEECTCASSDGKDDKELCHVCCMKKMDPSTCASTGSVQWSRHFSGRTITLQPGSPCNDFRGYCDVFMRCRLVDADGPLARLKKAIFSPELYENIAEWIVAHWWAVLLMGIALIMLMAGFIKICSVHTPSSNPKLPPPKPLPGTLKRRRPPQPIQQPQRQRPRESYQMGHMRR
UniProt Q9H2P0: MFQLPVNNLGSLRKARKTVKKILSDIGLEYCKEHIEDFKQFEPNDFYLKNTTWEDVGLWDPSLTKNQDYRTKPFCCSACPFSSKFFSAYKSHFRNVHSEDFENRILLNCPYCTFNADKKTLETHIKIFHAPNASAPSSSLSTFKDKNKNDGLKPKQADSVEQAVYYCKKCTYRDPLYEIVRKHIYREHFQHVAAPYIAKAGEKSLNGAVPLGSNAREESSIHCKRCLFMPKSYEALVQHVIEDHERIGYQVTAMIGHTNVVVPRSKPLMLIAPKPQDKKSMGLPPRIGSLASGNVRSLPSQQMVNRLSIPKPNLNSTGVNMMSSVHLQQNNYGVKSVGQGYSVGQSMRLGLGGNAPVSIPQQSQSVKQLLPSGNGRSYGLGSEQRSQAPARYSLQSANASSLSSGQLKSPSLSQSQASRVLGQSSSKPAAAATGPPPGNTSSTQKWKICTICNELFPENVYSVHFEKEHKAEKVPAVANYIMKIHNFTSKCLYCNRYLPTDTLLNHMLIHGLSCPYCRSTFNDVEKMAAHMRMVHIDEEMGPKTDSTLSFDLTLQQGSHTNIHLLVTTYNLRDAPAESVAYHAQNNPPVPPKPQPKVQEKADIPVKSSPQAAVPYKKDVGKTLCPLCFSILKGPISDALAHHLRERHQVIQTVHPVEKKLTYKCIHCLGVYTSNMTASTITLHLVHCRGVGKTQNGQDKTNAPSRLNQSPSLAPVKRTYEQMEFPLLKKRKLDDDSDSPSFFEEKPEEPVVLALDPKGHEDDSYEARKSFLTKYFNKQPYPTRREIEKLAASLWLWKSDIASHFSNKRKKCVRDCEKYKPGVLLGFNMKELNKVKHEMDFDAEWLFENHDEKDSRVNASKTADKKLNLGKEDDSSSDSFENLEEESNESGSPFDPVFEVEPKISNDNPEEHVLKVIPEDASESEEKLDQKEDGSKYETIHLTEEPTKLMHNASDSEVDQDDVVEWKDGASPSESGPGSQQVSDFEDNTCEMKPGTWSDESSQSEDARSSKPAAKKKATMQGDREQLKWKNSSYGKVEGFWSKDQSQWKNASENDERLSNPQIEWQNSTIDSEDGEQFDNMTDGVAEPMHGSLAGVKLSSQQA
UniProt P24666: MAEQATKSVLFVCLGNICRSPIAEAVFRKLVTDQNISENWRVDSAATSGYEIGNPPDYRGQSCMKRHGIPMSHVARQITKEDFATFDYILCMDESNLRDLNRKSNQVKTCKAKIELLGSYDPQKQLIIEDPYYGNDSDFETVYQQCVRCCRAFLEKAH
UniProt P61163, whole entry, looked up: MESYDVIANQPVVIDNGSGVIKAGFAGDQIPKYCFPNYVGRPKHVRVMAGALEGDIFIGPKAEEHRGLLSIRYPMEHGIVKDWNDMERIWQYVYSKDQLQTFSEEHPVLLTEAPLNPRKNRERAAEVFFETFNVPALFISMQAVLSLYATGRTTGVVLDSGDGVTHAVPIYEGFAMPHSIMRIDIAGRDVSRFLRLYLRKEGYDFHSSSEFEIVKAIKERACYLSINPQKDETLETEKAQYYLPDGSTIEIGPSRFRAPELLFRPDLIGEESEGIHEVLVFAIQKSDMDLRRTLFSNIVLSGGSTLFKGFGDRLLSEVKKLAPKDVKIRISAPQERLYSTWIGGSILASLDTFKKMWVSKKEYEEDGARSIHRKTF
UniProt O00116: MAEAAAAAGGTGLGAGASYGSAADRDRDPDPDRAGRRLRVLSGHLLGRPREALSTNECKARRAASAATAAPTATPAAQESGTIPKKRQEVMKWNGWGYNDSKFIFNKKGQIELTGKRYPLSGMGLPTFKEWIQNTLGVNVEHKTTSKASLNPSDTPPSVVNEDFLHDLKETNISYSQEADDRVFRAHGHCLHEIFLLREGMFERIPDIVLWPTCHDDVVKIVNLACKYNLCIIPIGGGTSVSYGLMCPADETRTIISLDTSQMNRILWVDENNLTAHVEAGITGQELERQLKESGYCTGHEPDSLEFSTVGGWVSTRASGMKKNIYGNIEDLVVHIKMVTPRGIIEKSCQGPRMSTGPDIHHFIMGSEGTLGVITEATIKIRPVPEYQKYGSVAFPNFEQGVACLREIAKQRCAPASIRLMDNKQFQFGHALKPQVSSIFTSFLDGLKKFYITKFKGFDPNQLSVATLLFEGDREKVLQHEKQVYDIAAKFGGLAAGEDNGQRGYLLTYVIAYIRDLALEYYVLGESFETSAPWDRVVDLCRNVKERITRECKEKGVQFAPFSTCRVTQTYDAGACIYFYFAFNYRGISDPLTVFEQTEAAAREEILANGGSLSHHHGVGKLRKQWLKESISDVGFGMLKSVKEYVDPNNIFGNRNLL
UniProt P54922: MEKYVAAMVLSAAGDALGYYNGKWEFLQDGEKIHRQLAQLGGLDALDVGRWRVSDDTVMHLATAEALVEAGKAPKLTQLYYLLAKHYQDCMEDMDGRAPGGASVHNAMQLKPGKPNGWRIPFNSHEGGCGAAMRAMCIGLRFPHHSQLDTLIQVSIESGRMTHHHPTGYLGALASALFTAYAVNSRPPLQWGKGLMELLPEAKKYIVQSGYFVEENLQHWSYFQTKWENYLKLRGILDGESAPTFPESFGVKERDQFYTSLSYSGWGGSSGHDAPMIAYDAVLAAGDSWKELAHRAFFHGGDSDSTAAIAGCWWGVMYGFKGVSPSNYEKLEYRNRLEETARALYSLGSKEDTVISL
UniProt O95831, whole entry, looked up: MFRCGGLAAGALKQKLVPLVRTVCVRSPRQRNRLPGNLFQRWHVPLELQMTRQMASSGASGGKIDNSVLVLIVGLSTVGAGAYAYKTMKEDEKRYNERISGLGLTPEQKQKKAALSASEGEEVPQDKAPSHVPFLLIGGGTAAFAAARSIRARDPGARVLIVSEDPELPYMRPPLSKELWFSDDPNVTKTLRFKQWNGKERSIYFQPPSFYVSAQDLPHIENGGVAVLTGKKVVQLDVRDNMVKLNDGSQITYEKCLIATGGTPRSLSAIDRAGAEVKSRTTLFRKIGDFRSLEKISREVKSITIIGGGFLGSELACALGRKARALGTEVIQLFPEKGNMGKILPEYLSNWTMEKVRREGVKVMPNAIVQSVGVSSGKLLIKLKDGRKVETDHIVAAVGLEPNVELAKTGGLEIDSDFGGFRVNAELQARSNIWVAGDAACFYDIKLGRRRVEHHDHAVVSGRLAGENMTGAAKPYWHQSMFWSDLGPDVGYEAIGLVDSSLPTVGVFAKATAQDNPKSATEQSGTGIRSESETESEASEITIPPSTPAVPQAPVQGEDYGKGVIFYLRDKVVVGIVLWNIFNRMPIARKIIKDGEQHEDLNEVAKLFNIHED

Compound: C1=CC2=C(C=CC(=C2)/C=C\3/C(=O)NC(=NCC4=CC=CS4)S3)N=C1
Assay: log2 fold change, soluble protein after heating vs DMSO (PISA); higher = thermal stabilisation; K562 lysate, 10 uM; active = over 0.2 and 3.5 SD of the protein, either way, in both replicates (recomputed)
Procedure, shortened: (§1)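 Dounce homogenisation of K562 pellets in PBS pH 7.4 with 1 mM MgCl2 produced a crude extract, used at 1 mg/mL protein. Exposure to 10 μM compound lasted 30 min, and aliquots were then heated for 3 min across 48°C-58°C, pooled and brought to 0.5% NP-40 at 4°C. The supernatant after 21,000xg for 90 min was quantified by TMTpro 16plex LC-MS/MS with channel sums equalised. Duplicate values are given as log-two fold change in thermal stability relative to solvent controls.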

Target	log2 fold change
AIP (UniProt O00170)	inactive: -0.004
ACY1 (UniProt Q03154)	inactive: 0.01
ACTG1 (UniProt I3L4N8)	inactive: 0.029
ACYP1 (UniProt P07311)	inactive: -0.02
ADIPOR2 (UniProt Q86V24)	inactive: 0
ACSL1 (UniProt P33121)	inactive: 0.086
ACOT9 isoform 4 (UniProt Q9Y305)	inactive: -0.007
AGFG1 isoform 4 (UniProt P52594)	inactive: -0.033
ADA (UniProt P00813)	inactive: -0.005
ADAM10 (UniProt O14672)	inactive: 0.03
AFF4 (UniProt Q9UHB7)	inactive: -0.063
AKNA (UniProt Q7Z591)	inactive: -0.07
ACSM3 (UniProt Q53FZ2)	inactive: 0.027
ADH5 (UniProt P11766)	inactive: -0.016
ADNP (UniProt Q9H2P0)	inactive: -0.013
AKR1C3 (UniProt P42330)	inactive: 0.029
ADD1 isoform 3 (UniProt P35611)	inactive: 0.011

Target	log2 fold change
ADO (UniProt Q96SZ5)	inactive: -0.019
ACSL4 (UniProt O60488)	inactive: 0.062
AKR1A1 (UniProt P14550)	inactive: 0.016
ACP1 isoform 2 (UniProt P24666)	inactive: -0.033
ACTR1A (UniProt P61163)	inactive: -0.026
AKAP12 (UniProt Q02952)	inactive: -0.096
AK4 (UniProt P27144)	inactive: -0.01
AGPS (UniProt O00116)	inactive: 0.037
ACTB, A0A2R8Y793	inactive: -0.006
ACTR2 (UniProt P61160)	inactive: 0.015
ACSF3 (UniProt Q4G176)	inactive: 0.081
AGTPBP1 (UniProt Q9UPW5)	inactive: -0.029
AHSA1 (UniProt O95433)	inactive: -0.046
ADPRH (UniProt P54922)	inactive: 0.192
AFF1 isoform 2 (UniProt P51825)	inactive: 0.071
AGAP3 isoform 4 (UniProt Q96P47)	inactive: 0.04
AIFM1 (UniProt O95831)	inactive: -0.007

Compound: C1=CC2=NC=CN=C2C=C1/C=C/3\C(=O)NC(=O)S3
Assay: as above
Procedure, shortened: as §1

Target	log2 fold change
AIP (UniProt O00170)	inactive: -0.012
ACY1 (UniProt Q03154)	inactive: 0.009
ACTG1 (UniProt I3L4N8)	inactive: -0.2
ACYP1 (UniProt P07311)	inactive: -0.008
ADIPOR2 (UniProt Q86V24)	inactive: -0.287
ACSL1 (UniProt P33121)	inactive: 0.051
ACOT9 isoform 4 (UniProt Q9Y305)	inactive: 0.035
AGFG1 isoform 4 (UniProt P52594)	inactive: -0.013
ADA (UniProt P00813)	inactive: -0.01
ADAM10 (UniProt O14672)	inactive: 0.002
AFF4 (UniProt Q9UHB7)	inactive: 0.021
AKNA (UniProt Q7Z591)	inactive: 0.08
ACSM3 (UniProt Q53FZ2)	inactive: -0.015
ADH5 (UniProt P11766)	inactive: 0.063
ADNP (UniProt Q9H2P0)	inactive: -0.051
AKR1C3 (UniProt P42330)	inactive: 0.008
ADD1 isoform 3 (UniProt P35611)	inactive: -0.01

Target	log2 fold change
ADO (UniProt Q96SZ5)	inactive: -0.013
ACSL4 (UniProt O60488)	inactive: 0.022
AKR1A1 (UniProt P14550)	inactive: 0.007
ACP1 isoform 2 (UniProt P24666)	inactive: -0.014
ACTR1A (UniProt P61163)	inactive: 0.01
AKAP12 (UniProt Q02952)	inactive: 0.098
AK4 (UniProt P27144)	inactive: -0.01
AGPS (UniProt O00116)	inactive: 0.019
ACTB, A0A2R8Y793	inactive: -0.002
ACTR2 (UniProt P61160)	inactive: -0.006
ACSF3 (UniProt Q4G176)	inactive: 0.031
AGTPBP1 (UniProt Q9UPW5)	inactive: 0.042
AHSA1 (UniProt O95433)	inactive: 0.004
ADPRH (UniProt P54922)	inactive: 0.032
AFF1 isoform 2 (UniProt P51825)	inactive: -0.068
AGAP3 isoform 4 (UniProt Q96P47)	inactive: -0.016
AIFM1 (UniProt O95831)	inactive: 0.025

Compound: C1=CC=C(C=C1)C2=NC(=C(N2)C3=CC=NC=C3)C4=CC(=C(C=C4)Cl)O
Assay: as above
Procedure, shortened: as §1

Target	log2 fold change
AIP (UniProt O00170)	inactive: 0.018
ACY1 (UniProt Q03154)	inactive: -0.015
ACTG1 (UniProt I3L4N8)	inactive: 0.054
ACYP1 (UniProt P07311)	inactive: -0.017
ADIPOR2 (UniProt Q86V24)	inactive: -0.043
ACSL1 (UniProt P33121)	inactive: 0.025
ACOT9 isoform 4 (UniProt Q9Y305)	inactive: 0.01
AGFG1 isoform 4 (UniProt P52594)	inactive: -0.05
ADA (UniProt P00813)	inactive: 0.012
ADAM10 (UniProt O14672)	inactive: 0.003
AFF4 (UniProt Q9UHB7)	inactive: 0.048
AKNA (UniProt Q7Z591)	inactive: 0.028
ACSM3 (UniProt Q53FZ2)	inactive: -0.004
ADH5 (UniProt P11766)	inactive: 0.026
ADNP (UniProt Q9H2P0)	inactive: -0.022
AKR1C3 (UniProt P42330)	active: 0.3
ADD1 isoform 3 (UniProt P35611)	inactive: -0.004

Target	log2 fold change
ADO (UniProt Q96SZ5)	inactive: 0.015
ACSL4 (UniProt O60488)	inactive: -0.014
AKR1A1 (UniProt P14550)	inactive: -0.015
ACP1 isoform 2 (UniProt P24666)	inactive: 0.006
ACTR1A (UniProt P61163)	inactive: 0
AKAP12 (UniProt Q02952)	inactive: -0.008
AK4 (UniProt P27144)	inactive: 0.015
AGPS (UniProt O00116)	inactive: -0.039
ACTB, A0A2R8Y793	inactive: 0.008
ACTR2 (UniProt P61160)	inactive: -0.001
ACSF3 (UniProt Q4G176)	inactive: 0.002
AGTPBP1 (UniProt Q9UPW5)	inactive: -0.053
AHSA1 (UniProt O95433)	inactive: 0
ADPRH (UniProt P54922)	inactive: -0.073
AFF1 isoform 2 (UniProt P51825)	inactive: -0.007
AGAP3 isoform 4 (UniProt Q96P47)	inactive: 0.014
AIFM1 (UniProt O95831)	inactive: 0.003
